Results are given in words; binding and its absence hold for the method and conditions named. Some binding calls cover weakened binding; strength is not graded here.
Tests used:
Assay in all cases: NMR titration; 1H-15N HSQC of ~50 uM 15N-labelled 3xFLAG-N-myc(1-137); Fbxw7–Skp1 (550 uM stock) added up to [N-myc]:[Fbxw7–Skp1] 1:2; TBS buffer; kinases quenched with 8 mM EDTA; both purified
[1] = target: 3xFLAG-N-myc_(1–137) pThr58 pSer62 (UniProt P04198)
[2] = target: 3xFLAG-N-myc_(1–137), unphosphorylated (UniProt P04198)
[3] = target: 3xFLAG-N-myc_(1–137) pSer62 (UniProt P04198)

Sequences of proteins named here, by UniProt entry; tags and fusion partners are left off. A change or cut given only in a name is not applied to a line headed by its entry. Residues count along the entry.
UniProt P04198, residues 1-137: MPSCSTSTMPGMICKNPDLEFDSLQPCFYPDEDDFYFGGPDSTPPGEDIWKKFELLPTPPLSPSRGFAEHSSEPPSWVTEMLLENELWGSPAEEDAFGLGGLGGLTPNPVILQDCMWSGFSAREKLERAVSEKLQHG
UniProt Q969H0: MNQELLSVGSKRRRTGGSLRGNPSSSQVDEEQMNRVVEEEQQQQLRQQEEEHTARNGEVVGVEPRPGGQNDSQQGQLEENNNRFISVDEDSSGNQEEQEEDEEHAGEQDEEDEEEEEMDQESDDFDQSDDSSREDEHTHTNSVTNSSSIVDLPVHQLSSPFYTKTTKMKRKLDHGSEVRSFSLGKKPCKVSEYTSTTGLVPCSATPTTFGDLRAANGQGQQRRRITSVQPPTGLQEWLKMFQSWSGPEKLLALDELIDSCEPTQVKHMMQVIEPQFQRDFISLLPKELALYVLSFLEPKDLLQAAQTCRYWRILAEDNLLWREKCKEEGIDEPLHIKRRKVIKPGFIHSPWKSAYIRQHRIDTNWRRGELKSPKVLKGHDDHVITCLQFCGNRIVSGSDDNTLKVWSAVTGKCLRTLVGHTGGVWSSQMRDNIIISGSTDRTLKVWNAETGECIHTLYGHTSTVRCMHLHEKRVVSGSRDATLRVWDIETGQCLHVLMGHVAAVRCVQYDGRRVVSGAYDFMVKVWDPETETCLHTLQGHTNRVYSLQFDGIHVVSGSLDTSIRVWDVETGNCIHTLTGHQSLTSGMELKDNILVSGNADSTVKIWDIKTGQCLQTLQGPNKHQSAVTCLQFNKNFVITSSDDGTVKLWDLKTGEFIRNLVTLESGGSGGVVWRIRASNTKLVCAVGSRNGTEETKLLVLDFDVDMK

Question: Which binding [1] does the source give for “Fbxw7–Skp1 complex (from UniProt Q969H0 261-706; P63208 1-163)” here?
Answer: binds

Question: And the binding [2]?
Answer: binds weakly

Question: And the binding [3]?
Answer: binds weakly

— paper PMC11555651 (Biochemical Journal, 2024)
